{"source": "patent US20180118821A1", "about": "(Eli Lilly, published 2018)", "target": "Cynomolgus monkey IL-33 (cynomolgus monkey)", "experiment": "SPR (Biacore T100/T200), antibody captured on Protein A", "note": "No constants are given. Whether binding was seen depends on the method and setting. Some entries that bind do so weakly or less than the wild type.", "data": [{"binder": "Antibody 43 (antibody, human IgG4 S228P, kappa, F234A L235A, V domains shown, Derived from Antibody 54 by engineering to reduce potential immunogenicity; expressed in CHO cells; also called Ab 43; Exemplified Antibody) VH: EVQLVETGGGLIQPGGSLRLSCAASGFTFSFYAMSWVRQAPGKGLEWVSAISGSGGSTYYADSVKGRFTISRDNSKNTLYLQMNSLRAEDTAVYYCARTIHGIRAAYDAFIIWGQGTLVTVSS VL: EIVLTQSPGTLSLSPGERATLSCRASQSVGINLSWYQQKPGQAPRLLIYGASHRLTGIPDRFSGSGSGTDFTLTISRLEPEDFAVYYCHQYSQPPPFTFGGGTKVEIKR", "values": [{"measurement": "binding", "result": "binds"}]}]}
